Measured values published in PMC3477016, “The intrinsic GTPase activity of the Gtr1 protein from Saccharomyces cerevisiae” (BMC Biochemistry, 2012).
Results are given in words; binding and its absence hold for the method and conditions named. Sequences can lack the tags named with a protein.

Molecular target: His6-Gtr1 wild-type protein (S. cerevisiae full-length Gtr1) (S. cerevisiae) (UniProt Q00582)
Assay: native gel or EMSA; native gel electrophoresis of the purified recombinant His6-Gtr1; the protein migrates at 36 kDa; both purified

B1: His6-Gtr1 wild-type protein (S. cerevisiae full-length Gtr1) (protein, UniProt Q00582 1-310)
chain: MSSNNRKKLLLMGRSGSGKSSMRSIIFSNYSAFDTRRLGATIDVEHSHLRFLGNMTLNLWDCGGQDVFMENYFTKQKDHIFQMVQVLIHVFDVESTEVLKDIEIFAKALKQLRKYSPDAKIFVLLHKMDLVQLDKREELFQIMMKNLSETSSEFGFPNLIGFPTSIWDESLYKAWSQIVCSLIPNMSNHQSNLKKFKEIMNALEIILFERTTFLVICSSNGENSNENHDSSDNNNVLLDPKRFEKISNIMKNFKQSCTKLKSGFKTLILNNNIYVSELSSNMVCFIVLKDMNIPQELVLENIKKAKEFFQ
B1 was tested, and the binding was “no binding”.
